Source: the supplement of paper PMC4604168 (melanoma cell lines)
The other results are listed elsewhere or left out. Single values are uncertain, as repeats are few or missing.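 The apoptosis fraction was the count of cleaved-PARP antibody-stained nuclei relative to all DNA-stained nuclei, imaged in 1,536-well plates. Screening doses were set so most cells survived, and baseline and induced cleaved-PARP levels vary greatly across cell lines.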

What follows are compounds tested on A101D (assay: cleaved PARP positive nuclei fraction relative to DMSO control; melanoma cells; higher = more apoptosis). Details: library dose: low library concentration; 72 h.

| Structure (SMILES) | cleaved PARP positive nuclei fraction |
| --- | --- |
| Cn1c(=O)n(-c2ccc(C(C)(C)C#N)cc2)c2c3cc(-c4cnc5ccccc5c4)ccc3ncc21 + Cn1nnc2c(C(N)=O)ncn2c1=O [temozolomide] (first compound 0.004 µM, partner dose 2 µM) | 52.7% |
| CC(C)C[C@H](NC(=O)[C@H](Cc1ccccc1)NC(=O)c1cnccn1)B(O)O [Bortezomib] + C[C@@H](Oc1cc(-c2cnn(C3CCNCC3)c2)cnc1N)c1c(Cl)ccc(F)c1Cl [Crizotinib] (first compound 0.001 µM, partner dose 0.2 µM) | 625% |
| O=C(O)[C@@H]1[O][Sb](=[O])([O][Sb]2(=[O])[O][C@H]([C@H](O)CO)[C@H](O)[C@H](C(=O)O)[O]2)[O][C@H]([C@H](O)CO)[C@@H]1O (stereo partly drawn) [stibogluconate] + OCc1c[nH]c2ccccc12 [Indole-3-carbinol] (first compound 2 µM, partner dose 0.8 µM) | 30.1% |
| C=C(c1ccc(C(=O)O)cc1)c1cc2c(cc1C)C(C)(C)CCC2(C)C [Bexarotene] + Cn1nnc2c(C(N)=O)ncn2c1=O [temozolomide] (first compound 2 µM, partner dose 2 µM) | 148% |
| Nc1ncn([C@H]2C[C@H](O)[C@@H](CO)O2)c(=O)n1 [decitabine] + C[C@]1(c2nc3c(C(N)=O)cccc3[nH]2)CCCN1 [Veliparib] (first compound 0.1 µM, partner dose 1.4 µM) | 56.4% |
| CN1CCN(c2ccc3nc(-c4c(N)c5c(F)cccc5[nH]c4=O)[nH]c3c2)CC1 [Dovitinib] + Nc1nc(F)nc2c1ncn2[C@@H]1O[C@H](CO)[C@@H](O)[C@@H]1O [fludarabine] (first compound 0.1 µM, partner dose 0.2 µM) | 43.9% |
| CO[C@H]1C[C@@H]2CC[C@@H](C)[C@@](O)(O2)C(=O)C(=O)N2CCCC[C@H]2C(=O)O[C@H]([C@H](C)C[C@@H]2CC[C@@H](OCCO)[C@H](OC)C2)CC(=O)[C@H](C)/C=C(\C)[C@@H](O)[C@@H](OC)C(=O)[C@H](C)C[C@H](C)/C=C/C=C/C=C/1C [everolimus] + Clc1ccc(Nc2nnc(Cc3ccncc3)c3ccccc23)cc1 [vatalanib] (first compound 0.02 µM, partner dose 2 µM) | 121% |
| CO[C@H]1C[C@@H]2CC[C@@H](C)[C@@](O)(O2)C(=O)C(=O)N2CCCC[C@H]2C(=O)O[C@H]([C@H](C)C[C@@H]2CC[C@@H](OCCO)[C@H](OC)C2)CC(=O)[C@H](C)/C=C(\C)[C@@H](O)[C@@H](OC)C(=O)[C@H](C)C[C@H](C)/C=C/C=C/C=C/1C [everolimus] + C#Cc1cccc(Nc2ncnc3cc(OCCOC)c(OCCOC)cc23)c1 [erlotinib] (first compound 0.02 µM, partner dose 0.8 µM) | 57.8% |
| CS(=O)(=O)CCNCc1ccc(-c2ccc3ncnc(Nc4ccc(OCc5cccc(F)c5)c(Cl)c4)c3c2)o1 [lapatinib] + OCc1c[nH]c2ccccc12 [Indole-3-carbinol] (first compound 0.8 µM, partner dose 0.8 µM) | 99.5% |
| C[C@@H](Oc1cc(-c2cnn(C3CCNCC3)c2)cnc1N)c1c(Cl)ccc(F)c1Cl [Crizotinib] + Nc1ccn([C@@H]2O[C@H](CO)[C@@H](O)C2(F)F)c(=O)n1 [gemcitabine] (first compound 0.2 µM, partner dose 0.0004 µM) | 93.7% |
| O=C(O)[C@@H]1[O][Sb](=[O])([O][Sb]2(=[O])[O][C@H]([C@H](O)CO)[C@H](O)[C@H](C(=O)O)[O]2)[O][C@H]([C@H](O)CO)[C@@H]1O (stereo partly drawn) [stibogluconate] + COc1ccc(Cl)c(Nc2nc3ccccc3nc2NS(=O)(=O)c2cccc(NC(=O)C(C)(C)N)c2)c1 [XL147] (first compound 2 µM, partner dose 0.8 µM) | 167% |
| Cc1cc(Nc2cc(N3CCN(C)CC3)nc(/C=C/c3ccccc3)n2)n[nH]1 + C#Cc1cccc(Nc2ncnc3cc(OCCOC)c(OCCOC)cc23)c1 [erlotinib] (first compound 0.04 µM, partner dose 0.8 µM) | 158% |
| Nc1ccn([C@@H]2O[C@H](CO)[C@@H](O)C2(F)F)c(=O)n1 [gemcitabine] + COc1ccc(Cl)c(Nc2nc3ccccc3nc2NS(=O)(=O)c2cccc(NC(=O)C(C)(C)N)c2)c1 [XL147] (first compound 0.0004 µM, partner dose 0.8 µM) | 85.8% |

Random excerpt: two records from the list.

| Structure (SMILES) | cleaved PARP positive nuclei fraction |
| --- | --- |
| C[C@@H](Oc1cc(-c2cnn(C3CCNCC3)c2)cnc1N)c1c(Cl)ccc(F)c1Cl [Crizotinib] + Nc1ccn([C@@H]2O[C@H](CO)[C@@H](O)C2(F)F)c(=O)n1 [gemcitabine] (first compound 0.2 µM, partner dose 0.0004 µM) | 93.7% |
| O=C(O)[C@@H]1[O][Sb](=[O])([O][Sb]2(=[O])[O][C@H]([C@H](O)CO)[C@H](O)[C@H](C(=O)O)[O]2)[O][C@H]([C@H](O)CO)[C@@H]1O (stereo partly drawn) [stibogluconate] + OCc1c[nH]c2ccccc12 [Indole-3-carbinol] (first compound 2 µM, partner dose 0.8 µM) | 30.1% |
